This passage reports binding results from patent US20240325490A1 (RESEARCH AND BUSINESS FOUNDATION SUNGKYUNKWAN UNIVERSITY, published 2024).

Assay [1] deals with P62 (P62/SQSTM1) adaptor protein (UniProt Q13501). The assay is described as follows: fragment binding assay, figure legend (FIG. 6L).
Assay [2] shares this target. The assay is described as follows: fragment binding assay (FIG. 6L); method not described.

These are yes or no findings as the source states them, for the method shown. Some binding calls cover weakened binding; strength is not graded here.

B1: EBP1 280-394 amino acids fragment (protein, UniProt Q9UQ80 280-394, looked up)
chain: LRAFEDEKKARMGVVECAKHELLQPFNVLYEKEGEFVAQFKFTVLLMPNGPMRITSGPFEPDLYKSEMEVQDAELKALLQSSASRKTQKKKKKKASKTAENATSGETLEENEAGD
For B1, the binding entry in assay [1] and in assay [2] was “binds” throughout.
